PubChem BioAssay AID2685 (National Center for Advancing Translational Sciences (NCATS), 2010)
Some of the results follow. These are further read-outs of the screen, such as a control signal, another cell line or another target. No call is given for them. The list favours compounds with an active or inconclusive main result. Words in brackets tell the shape of the fitted curve; partial curves, single points and poor fits give uncertain potencies.

Test: qHTS Assay for Lipid Storage Modulators in Drosophila S3 Cells;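 as to cell number change: cells counted by Cell Tracker Red CMTPX staining in the red channel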
Conditions: BODIPY lipid droplet fluorescence, 18-24 h; for cell number change: measured here: cell count max response, cells fed with added oleic acid
How it was run: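 Laser-scanning cytometry quantifies lipid droplet accumulation (500–530 nm total intensity; droplet/cell object ratio) in oleic acid-fed (400 uM added) Drosophila S3 cells treated with a concentration series. 20 uM Triacsin C defined 100% inhibition.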

[1] = measured here: lipid fluorescence (Fed channel) AC50, cells fed with added oleic acid
[2] = measured here: cell number channel AC50, cells fed with added oleic acid

| Compound | cell number change [%] | AC50 [1] | AC50 [2] |
| --- | --- | --- | --- |
| COC(=O)N/N=C/c1c(C)cc(C)cc1C | 11.7 | 0.291 µM [rising, partial curve, poor fit] |  |
| CC(OC(=O)CN1C(=O)NC(C)(C)C1=O)C(=O)c1ccccc1 (stereo unspecified) | -111 | 6.51 µM [falling, single point] | 25.9 µM [falling, partial curve] |
| CCOC(=O)c1sc2nc(N3CCOCC3)c3c(c2c1N)CC(C(C)C)OC3 (stereo unspecified) | 17.7 | 0.291 µM [rising, full curve, poor fit] |  |
| Cc1ccc2c(c1)c(Sc1ccccc1)c(CC(=O)O)n2C | -3.13 | 1.84 µM [falling, partial curve] |  |
| Cc1cc(NC(=O)c2cc(F)c(F)cc2Cl)no1 | -5.47 | 0.461 µM [rising, single point] |  |
| CC(=O)c1sc(Nc2ccccn2)nc1C | -13.9 | 0.0517 µM [rising, full curve, poor fit] |  |
| COc1ccc(S(=O)(=O)Nc2ccc(S(=O)(=O)Nc3ccc(F)cc3)cc2)cc1C | -57.5 | 18.4 µM [falling, partial curve] | 14.6 µM [falling, partial curve] |
| COc1cccc(C2C(C#N)=C(N)Oc3cc(C)oc(=O)c32)c1OC (stereo unspecified) | -0.491 | 1.84 µM [rising, partial curve, poor fit] |  |
| CCN(C(=O)CSc1nnc(-c2ccc(F)cc2)c2ccccc12)C1CCS(=O)(=O)C1 (stereo unspecified) |  | 3.26 µM [rising, single point] |  |
| COc1ccc(C(=O)NCc2nnc(SCC(=O)N3CCc4ccccc43)o2)cc1OC | 41.8 | 0.092 µM [rising, full curve, poor fit] | 0.291 µM [rising, partial curve] |
| CCOC(=O)C1CCN(CC(C)(C)NS(=O)(=O)c2ccccc2)CC1 | 15.7 | 29.1 µM [falling, single point] |  |
| Cc1ccc(OCC(=O)Nc2ccc(N3CCN(S(C)(=O)=O)CC3)cc2)cc1C | 13.4 | 7.31 µM [rising, partial curve, poor fit] |  |
| CCOCCCNC(=S)NCCCNc1nc2c(C)c(C)ccc2cc1C#N | -45.2 | 6.51 µM [falling, single point] | 7.31 µM [falling, partial curve] |
| CCCc1ncc(C(O)c2cccc(OC)c2OC)n1C (stereo unspecified) | -10.3 |  |  |
| CCN(CC)c1ccc(C2NC(=O)NC(C)=C2C(=O)Nc2ccccc2)cc1 (stereo unspecified) |  | 0.146 µM [falling, full curve, poor fit] |  |
| CCC(CC)NC(=O)CO/N=C/c1ccc(Cl)cc1Cl | 20 | 29.1 µM [rising, single point] |  |
| C=CCn1c(SCC(=O)Nc2ccc3c(c2)OCO3)nnc1-c1ccccc1 | 9.66 | 0.517 µM [rising, full curve, poor fit] |  |
| CC(C)CN(C(=O)COC(=O)CNC(=O)c1ccc(Cl)cc1)C1CCS(=O)(=O)C1 (stereo unspecified) | 41 | 4.61 µM [rising, partial curve] | 13 µM [rising, single point] |
| Cn1ncc([N+](=O)[O-])c1C(=O)N/N=C/c1cccc([N+](=O)[O-])c1 | 0.998 | 7.31 µM [falling, full curve] |  |
| C/C(=N\NC(=O)c1c(C)nc2ccccn12)c1ccccc1F | -7.69 | 29.1 µM [rising, single point] |  |

| Compound | cell number change [%] | AC50 [1] | AC50 [2] |
| --- | --- | --- | --- |
| Cc1ccn2cc(-c3ccc4c(c3)NC(=O)CO4)nc2c1 | 19.5 |  |  |
| CC1CCN(S(=O)(=O)c2ccc3c(c2)oc(=O)n3CC(=O)N2CCc3ccccc3C2)CC1 | 6.44 | 0.058 µM [falling, full curve, poor fit] |  |
| O=[N+]([O-])/C=C/c1c(OCc2ccccc2)ccc2ccccc12 | 15.8 | 6.51 µM [falling, single point] |  |
| Cc1cc(OCC(=O)N2CCCCCC2)ccc1[N+](=O)[O-] | 3.3 |  | 6.51 µM [falling, single point] |
| Cn1cccc1C(=O)NCC1CCCCC1 |  | 15.8 µM [rising, partial curve] |  |
| CCCCN(C(=O)CCC(=O)Nc1cc(C)on1)C(C(=O)NC1CCCC1)c1cccc(OC)c1 (stereo unspecified) | -3.91 | 6.51 µM [rising, partial curve, poor fit] |  |
| Cc1ccc(C)c(N2CCN(S(=O)(=O)c3ccc4c(c3)NC(=O)CS4)CC2)c1 | 21.8 | 29.1 µM [rising, single point] |  |
| COC(=O)COn1c(SC(C)C)nc2ccccc2c1=O | -18.9 | 1.64 µM [falling, partial curve, poor fit] |  |
| CN(C)C(/C=C/Nc1ccc(O)cc1)=C(C#N)C#N | -14.7 |  |  |
| Cc1cccc(S(=O)(=O)CC(=O)Nc2nc(-c3ccccc3)cs2)c1 | -4.72 |  |  |
| C/C(=C/CCC(C)[C@H]1CC[C@@]2(C)C3=C(CC[C@]12C)[C@@]1(C)CCC(=O)C(C)(C)[C@@H]1CC3)C(=O)O (stereo partly specified) | -46.2 | 7.31 µM [falling, single point] | 29.1 µM [falling, single point] |
| O=C(NC1CC1)C(Cl)c1ccccc1 (stereo unspecified) | 0.901 | 0.58 µM [falling, single point] |  |
| COc1cc2c(C(=O)NCCN(C)C)cn(CC(C)C)c(=O)c2cc1OC | -46.6 | 0.651 µM [falling, full curve] |  |
| Cn1nc(-c2ccccc2)c2cc([N+](=O)[O-])ccc21 | -44.4 |  | 11.6 µM [falling, partial curve, poor fit] |
| C=CCNC(=S)Nc1nc2c(cc1C(=O)OCC)COC(C)(C)C2 | -2.11 |  |  |
| Cc1nc2c(-c3ccc(F)cc3)cnn2c(N)c1-c1ccc(F)cc1 | -28 | 29.1 µM [falling, single point] |  |
| Cc1cccc(NC(=O)NNC(=O)c2ccc3ccccc3c2)c1 | 33 |  | 32.6 µM [rising, partial curve, poor fit] |
| COc1ccccc1C1NC(=O)NC(C)=C1C(=O)Nc1cccc(C)c1C (stereo unspecified) | -16.4 |  |  |
| CCOc1cc(/C=N/Nc2nncc(-c3ccccc3)n2)ccc1O | -4.81 |  |  |
| COCc1cc(C)nc(SCC(=O)Nc2cccc3cccnc23)c1C#N | 0.0616 | 0.517 µM [rising, single point] |  |

An excerpt of these results, field by field:
CC1CCN(S(=O)(=O)c2ccc3c(c2)oc(=O)n3CC(=O)N2CCc3ccccc3C2)CC1
  cell number change [%]: 6.44; AC50 [1]: 0.058 µM [falling, full curve, poor fit]
Cc1cc(OCC(=O)N2CCCCCC2)ccc1[N+](=O)[O-]
  cell number change [%]: 3.3; AC50 [2]: 6.51 µM [falling, single point]
Cc1ccc(C)c(N2CCN(S(=O)(=O)c3ccc4c(c3)NC(=O)CS4)CC2)c1
  cell number change [%]: 21.8; AC50 [1]: 29.1 µM [rising, single point]
C=CCNC(=S)Nc1nc2c(cc1C(=O)OCC)COC(C)(C)C2
  cell number change [%]: -2.11

Going on with the list:

| Compound | cell number change [%] | AC50 [1] | AC50 [2] |
| --- | --- | --- | --- |
| C=CCn1c(SCC(=O)Nc2ccc(Br)cc2)nc(O)c(CC)c1=O | 19.8 |  | 0.00517 µM [rising, full curve, poor fit] |
| COc1ccc(Br)cc1/C=N/Nc1ccc(Cl)c(C(=O)O)c1 |  |  | 6.51 µM [rising, single point] |
| COc1ccc(C(=O)C(O)C(c2ccc(C)cc2)N2CCOCC2)cc1OC (stereo unspecified) | 4.26 | 29.1 µM [rising, single point] |  |
| CCN(CC)S(=O)(=O)c1ccc2[nH]c(=O)cc(C(=O)NCc3ccccc3)c2c1 | 14.6 |  |  |
| C=CCNc1sc(C(=O)c2ccc(C)cc2)c(N)c1C#N | 10.2 |  |  |
| COc1ccc(CNC(=O)c2c(-c3c(F)cccc3Cl)noc2C)cc1 | 4.96 | 0.13 µM [rising, full curve, poor fit] | 0.82 µM [rising, single point] |
| CCn1c(N2CCN(C(=O)NC3CCCCC3)CC2)nc2ccccc21 | -54.9 | 20.6 µM [falling, single point] | 20.6 µM [falling, single point] |
| COc1ccc(C(=O)NCC(=O)N2CCNC(=O)C2)cc1OC | 13.4 |  |  |
| Cc1ccc(C(C(=O)NC2CCCC2)N(Cc2ccc3c(c2)OCO3)C(=O)Cc2cccs2)cc1 (stereo unspecified) | -38.6 |  | 29.1 µM [falling, single point] |
| O=C(NCCN1CCN(Cc2ccc([N+](=O)[O-])cc2)CC1)C(=O)Nc1ccccc1 | -107 | 29.1 µM [falling, single point] | 29.1 µM [falling, single point] |
| Cc1sc2nc(C(C)C)nc(SCC(=O)NCc3ccco3)c2c1C | -36.5 | 23.1 µM [falling, single point] | 9.2 µM [falling, partial curve, poor fit] |
| O=c1[nH]c2ccccc2nc1-c1cccs1 | -11.7 | 6.51 µM [falling, single point] |  |
| CCN(C(=O)COC(=O)/C=C/c1nc2ccccc2s1)C1CCS(=O)(=O)C1 (stereo unspecified) | -27.5 |  | 3.26 µM [falling, full curve, poor fit] |
| COc1cccc(/C=C/C(=O)NNC(=O)c2ccncc2)c1OC | 17.1 | 5.17 µM [rising, full curve] |  |
| Cc1nn(CC(=O)NCCC2=CCCCC2)c(C)c1[N+](=O)[O-] | -38.2 |  | 0.0517 µM [falling, full curve, poor fit] |
| CCCSc1nsc(NC(=O)C(c2ccccc2)c2ccccc2)n1 | -144 | 29.1 µM [falling, single point] | 29.1 µM [falling, single point] |
| Cc1ccc(-n2nnnc2SCC(=O)Nc2sc(C)c(C)c2C#N)cc1C |  | 2.06 µM [rising, partial curve] |  |
| COc1ccc(OCC(=O)NCC(c2ccc(OC)cc2)N2CCCCC2)cc1 (stereo unspecified) | 20.3 |  |  |
| COCCCNC(=O)CSc1ccc(Cl)cc1 | -185 | 29.1 µM [falling, partial curve] | 25.9 µM [falling, partial curve] |
| Nc1ccc(O)cc1C(=O)OCC(=O)C12CC3CC(CC(C3)C1)C2 | -15.1 | 0.58 µM [falling, full curve, poor fit] |  |
